These results are taken from PubChem BioAssay AID662 (National Center for Advancing Translational Sciences (NCATS), 2007).

The other results are listed elsewhere or left out. Further columns of the screen follow, without active or inactive calls. Compounds called inactive in the main read-out are mostly missing here. Potencies come from curve fits of mixed quality, noted in brackets.

The experiment can be described thus: Cell signaling CRE-BLA (Fsk stim). The following applies: CHO CRE-bla reporter (cAMP response element driving beta-lactamase), forskolin EC10, beta-lactamase ratio; measured here: 460 nm blue channel. In a few lines: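 CHO CRE-bla cells, overnight plating in Opti-MEM with 0.5% dialyzed FBS; cpd titration + EC10 NKH 477, 3 h 37 °C; CCF4 2 h RT; ex 405/em 460 vs 530 ratio → %Activity, AC50.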
As to `C=CCNC(=O)c1ccncc1`, the AC50 (usually the concentration at which the activity in the assay is half-maximal) was 3.16 µM [falling, partial curve].

In the case of `N#Cc1c(NC(=O)c2cc(-n3cnnc3)ccc2Cl)sc2c1CCCC2`, the AC50 was 3.16 µM [falling, full curve].

Turning to `COc1cccc(-c2nc(CS(=O)(=O)CC(=O)N3CCN(c4ccccn4)CC3)c(C)o2)c1`, the half-maximal activity concentration (AC50) is 12.6 µM [rising, single point].

Turning to `CC(C)(C)NC(=O)C1N(c2cccnc2)C(=O)C2C(C(=O)Nc3ccccc3F)C3(C)C=CC21O3` (stereo not drawn), the AC50 was 5.01 µM [rising, single point].

In the case of `Cc1cc2nc(SC(C)C(=O)O)[nH]c2cc1C` (stereo not drawn), the AC50 was 25.1 µM [falling, single point].

Regarding `Cc1cc(N2CCN(C(=O)c3ccco3)CC2)n2nc(C)c(-c3ccc(Cl)cc3)c2n1`, the half-maximal activity concentration (AC50) was 25.1 µM [rising, single point].

For the compound `Cc1cc(C)n2c(SCC(=O)N3CCN(S(=O)(=O)c4ccc(Cl)cc4)CC3)nnc2n1`, the AC50 was 5.01 µM [falling, single point].

`CC(C)CCn1c(=O)c2ccccc2n2c(COC(=O)c3ccc(S(=O)(=O)N(C)C)cc3)nnc12`: the AC50 was 12.6 µM [rising, single point].

Consider `O=c1[nH]c(CN2CCN(Cc3ccccc3)CC2)nc2sc3c(c12)CCC3`, for which the AC50 was 3.16 µM [rising, partial curve].

`Cn1c(=O)n(C)c2cc(S(=O)(=O)NCCc3ccccc3)ccc21`: the AC50 is 0.398 µM [rising, full curve].

As to `COc1ccc(NC(=O)c2oc3ccc(S(=O)(=O)N4CCC5(CC4)OCCO5)cc3c2C)cc1`, the AC50 is 5.01 µM [falling, partial curve].

With `CC(CCO)Nc1nc2c(c(=O)n(C)c(=O)n2C)n1Cc1cccc(Br)c1` (stereo not drawn), the AC50 is 12.6 µM [rising, partial curve].

Regarding `CCCn1c(=O)[nH]c(=O)c2c1nc(-c1ccc3c(c1)OCCO3)n2CCN1CCOCC1`, the AC50 is 5.01 µM [rising, full curve].

For `CCOC(=O)C1CCN(C(=O)CCc2nc3ccccc3[nH]2)CC1`, the concentration at half-maximal activity (AC50) was 0.1 µM [falling, full curve, poor fit].

In the case of `Cc1ccc(S(=O)(=O)Nc2ccc3oc(=O)sc3c2)c(C)c1`, the AC50 is 15.8 µM [falling, single point].

Consider `O=C(c1cc(-c2ccco2)nn1-c1cccc(Cl)c1)N1CCCCC1`, for which the AC50 was 0.251 µM [falling, partial curve].

Turning to `CCCN(c1nc(C)cc(OC)n1)S(=O)(=O)c1ccccc1`, the concentration at half-maximal activity (AC50) was 0.398 µM [falling, single point].

For `O=C(CCN1C(=O)C2C3C=CC(C3)C2C1=O)Nc1ccc(F)cc1` (stereo not drawn), the AC50 was 25.1 µM [falling, single point].

For `CN(C)CCSc1nc(N)c2c3c(sc2n1)CN(C)CC3`, the AC50 was 5.01 µM [falling, single point].

In the case of `CCOC(=O)CNC(=O)CSc1nnc(Cn2c(=O)sc3ccccc32)n1-c1ccccc1C`, the AC50 was 25.1 µM [rising, single point].

For `Cn1c(=O)c(-c2cccc(C#N)c2)nc2cnc(Oc3ccccc3)nc21`, the AC50 was 10 µM [rising, single point].

Turning to `COc1ccccc1N1CCN(CC(O)COc2ccc3c(C)cc(=O)oc3c2)CC1` (stereo not drawn), the AC50 is 12.6 µM [rising, partial curve].

As to `Cc1[nH]nc2ncc(C(=O)c3ccccc3O)cc12`, the AC50 was 3.98 µM [falling, partial curve].

As for `Brc1ccc2[nH]c3nc(SCCN4CCOCC4)nnc3c2c1`, the AC50 was 2 µM [rising, full curve].

With `c1nc(N2CCC3(CC2)OCCO3)c2c3c(sc2n1)CCCC3`, the AC50 is 3.16 µM [rising, single point].

Consider `O=C(Oc1ccc(Cl)c2cccnc12)N1CCOCC1`, for which the AC50 was 7.94 µM [rising, partial curve].

On to `Brc1ccc2c(c1)c1nc3ccccc3nc1n2CCN1CCOCC1`, for which the AC50 was 7.94 µM [rising, partial curve].

Take `Cc1[nH]c(N)nc(=S)c1CCC(=O)O`: the AC50 was 0.158 µM [falling, partial curve, poor fit].

`Cc1ccc(CNc2oc(-c3ccco3)nc2C#N)cc1`: the AC50 is 12.6 µM [rising, partial curve].

For the compound `COc1ccc(CNc2ncncc2-c2cccnc2)c(OC)c1`, the AC50 was 12.6 µM [rising, partial curve].

Take `Cc1cnc(CNc2nc(-c3ccccc3C(F)(F)F)nc3ccccc23)cn1`: the half-maximal activity concentration (AC50) is 12.6 µM [rising, partial curve].

`COC(=O)CSc1nc2ccccc2nc1SCC(=O)OC`: the AC50 was 12.6 µM [rising, single point].

As for `Cc1c(NC(=O)OCCSc2nc(N(C)C)nc(N(C)C)n2)sc(=S)n1C`, the AC50 was 10 µM [rising, partial curve].

`O=c1cc(CO)oc(C(Nc2ccccn2)c2ccc(C(F)(F)F)cc2)c1O` (stereo not drawn): the AC50 is 5.01 µM [falling, partial curve, poor fit].

In the case of `Clc1ccc(Cn2ncc3c(N4CCCC4)ncnc32)cc1`, the AC50 was 10 µM [rising, partial curve].

Regarding `Cc1ccc(C)n1NC(=O)c1cccs1`, the AC50 was 31.6 µM [falling, single point].

With `CCOC(=O)N1CCC(NC(=O)c2cc3c(-c4cccc(OC)c4)nn(C)c3s2)CC1`, the AC50 is 10 µM [rising, partial curve].

Turning to `CCOC(=O)CSc1nc2c(c(=O)n(C)c(=O)n2C)n1Cc1ccccc1F`, the AC50 is 15.8 µM [rising, partial curve].

For `COc1ccc(-c2ccc(-c3noc(-c4ccccc4)n3)c(OC)n2)cc1`, the AC50 is 15.8 µM [rising, single point].

Regarding `Cc1cc(C)nc(SCC(=O)Nc2ccc(Br)cn2)n1`, the AC50 is 10 µM [rising, single point].

`CCC(c1nc2ccccc2c(=O)n1CCCn1ccnc1)N1C(=O)c2ccccc2C1=O` (stereo not drawn): the concentration at half-maximal activity (AC50) is 5.01 µM [rising, partial curve].

`CCOc1ccc(CCNc2cc(C)nc3ncnn23)cc1OCC`: the AC50 is 15.8 µM [rising, single point].

For `Cc1cc(C(F)(F)F)nn1CC(=O)Nc1cccnc1`, the AC50 is 0.0794 µM [falling, partial curve, poor fit].

Take `O=C(Nc1cc(N2CCOCC2)ncn1)Nc1cccc2ccccc12`: the AC50 is 0.794 µM [rising, full curve].

Regarding `O=C(CN1CCOCC1)N1CCN(S(=O)(=O)c2ccccc2)C1c1ccccc1` (stereo not drawn), the AC50 is 0.501 µM [falling, full curve].

Turning to `NC1=NC(c2ccccc2Cl)n2c(nc3ccccc32)N1` (stereo not drawn), the AC50 was 7.94 µM [falling, partial curve].

For the compound `COc1nc(NCC(C)C)nc(Oc2ccc(OCc3ccccc3)nn2)n1`, the AC50 was 10 µM [rising, single point].

For the compound `O=c1c2ccccc2nnn1CSc1ncnc2ccccc12`, the AC50 was 0.398 µM [falling, full curve].

Take `NC(=O)CSc1cn(CCNC(=O)c2cccs2)c2ccccc12`: the AC50 is 10 µM [rising, partial curve].

Consider `c1cncc(CNc2nc(-c3ccc4c(c3)OCO4)nc3ccccc23)c1`, for which the AC50 is 15.8 µM [rising, partial curve].

Consider `COC(=O)c1cc(COC(=O)c2ccc(OC)c(S(=O)(=O)N3CCCC3)c2)oc1C`, for which the AC50 is 10 µM [rising, single point].

As to `COc1cc(Br)cc(CN2CCN(C/C=C/c3ccccc3)CC2)c1O`, the AC50 was 10 µM [falling, partial curve].

Turning to `CSc1nc2oc3c(c2c2nncn12)CC(C)(C)SC3`, the AC50 was 3.98 µM [rising, partial curve].

`Cc1cc(C)c2nc(C(F)(F)F)nc(N3CC(C)OC(C)C3)c2c1` (stereo not drawn): the AC50 was 0.00398 µM [falling, full curve, poor fit].

On to `Cc1ccc(S(=O)(=O)NCc2ccc(C(=O)NCCCN3CCN(C)CC3)cc2)cc1`, for which the AC50 is 10 µM [falling, single point].

`O=C(Cn1cnnn1)Nc1ccccc1Cc1ccccc1`: the AC50 was 5.01 µM [falling, single point].

As to `Cc1ccc(NC2=NC(C(=O)Nc3ccc(C)c(C)c3)CC(=O)N2)cc1` (stereo not drawn), the AC50 was 6.31 µM [falling, full curve, poor fit].

With `COc1ccc(-c2onc3ccc(Cl)cc23)cc1OC`, the AC50 is 7.94 µM [rising, partial curve].

With `O=C(NCC1CCS(=O)(=O)C1)NCC1CCS(=O)(=O)C1` (stereo not drawn), the AC50 is 2.51 µM [falling, full curve, poor fit].

Regarding `Cn1c(=O)c2c(nc(N3CCCCC3)n2CCCNC2=NCCCC2)n(C)c1=O`, the AC50 was 10 µM [falling, partial curve].

As to `COc1ccccc1NC(=O)CN1CCC(n2c(C)nc3cc(F)ccc32)CC1`, the AC50 was 2 µM [rising, full curve].

In the case of `C=CCn1c(C)cc(C(=O)CSc2nnc(NCc3ccccc3)s2)c1C`, the AC50 is 20 µM [rising, single point].

For `COc1ccccc1N1CCN(C(c2cc3ccc(C)cc3[nH]c2=O)c2nnnn2C2CCCC2)CC1` (stereo not drawn), the half-maximal activity concentration (AC50) was 31.6 µM [falling, partial curve].

Regarding `O=C(CSc1nnc(-c2cccnc2)n1Cc1ccco1)c1ccccc1`, the AC50 was 10 µM [rising, single point].

`COc1ccccc1-c1ccc2ncnc(NCCN3CCOCC3)c2c1`: the half-maximal activity concentration (AC50) is 3.98 µM [rising, partial curve].

In the case of `CCc1ccc2[nH]c(=O)c(CN(CCN(C)C)C(=O)Nc3ccccc3)cc2c1`, the AC50 was 3.16 µM [falling, full curve].

As for `COc1cc(C2Nc3cccc4cccc(c34)N2)cc(OC)c1O`, the AC50 is 10 µM [falling, partial curve].

For the compound `CCn1c(SCc2nc3ccccc3nc2C)nnc1-c1cccs1`, the AC50 was 2.51 µM [rising, partial curve].
